Measured values from the supplement of paper PMC12595434, “Development of retinoid nuclear receptor pathway antagonists through targeting aldehyde dehydrogenase 1A3” (iScience, 2025).
The other results are listed elsewhere or left out. This is a noisy data set.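 Many melting curves are irregular; where none melted, Tm was taken as 64 °C.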

The chains behind the UniProt entries cited, without tags or fusion partners. Where a name states a change or a piece, a line headed by the entry shows the natural chain unless it says otherwise.
UniProt Q96JB2: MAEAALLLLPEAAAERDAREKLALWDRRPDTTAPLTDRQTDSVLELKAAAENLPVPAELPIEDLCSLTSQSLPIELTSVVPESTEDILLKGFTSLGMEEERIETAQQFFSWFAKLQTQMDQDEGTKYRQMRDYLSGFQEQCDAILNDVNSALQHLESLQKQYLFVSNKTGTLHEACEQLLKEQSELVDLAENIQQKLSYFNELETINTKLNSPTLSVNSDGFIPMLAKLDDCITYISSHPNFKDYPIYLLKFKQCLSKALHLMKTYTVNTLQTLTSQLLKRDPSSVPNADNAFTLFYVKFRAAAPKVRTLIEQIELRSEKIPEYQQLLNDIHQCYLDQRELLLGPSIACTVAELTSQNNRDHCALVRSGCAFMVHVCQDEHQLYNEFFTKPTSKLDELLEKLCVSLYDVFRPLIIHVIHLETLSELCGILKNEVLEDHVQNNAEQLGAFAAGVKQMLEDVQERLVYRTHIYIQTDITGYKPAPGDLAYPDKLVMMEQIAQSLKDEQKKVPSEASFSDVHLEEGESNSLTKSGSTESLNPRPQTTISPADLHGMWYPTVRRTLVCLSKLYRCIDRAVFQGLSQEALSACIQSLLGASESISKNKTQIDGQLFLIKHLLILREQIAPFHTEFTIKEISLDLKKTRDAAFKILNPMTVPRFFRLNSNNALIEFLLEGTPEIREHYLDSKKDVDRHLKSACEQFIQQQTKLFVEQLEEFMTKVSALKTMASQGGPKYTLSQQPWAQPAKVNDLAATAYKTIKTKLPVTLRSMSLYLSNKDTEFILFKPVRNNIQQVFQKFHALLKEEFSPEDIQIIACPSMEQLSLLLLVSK
UniProt Q96LW4: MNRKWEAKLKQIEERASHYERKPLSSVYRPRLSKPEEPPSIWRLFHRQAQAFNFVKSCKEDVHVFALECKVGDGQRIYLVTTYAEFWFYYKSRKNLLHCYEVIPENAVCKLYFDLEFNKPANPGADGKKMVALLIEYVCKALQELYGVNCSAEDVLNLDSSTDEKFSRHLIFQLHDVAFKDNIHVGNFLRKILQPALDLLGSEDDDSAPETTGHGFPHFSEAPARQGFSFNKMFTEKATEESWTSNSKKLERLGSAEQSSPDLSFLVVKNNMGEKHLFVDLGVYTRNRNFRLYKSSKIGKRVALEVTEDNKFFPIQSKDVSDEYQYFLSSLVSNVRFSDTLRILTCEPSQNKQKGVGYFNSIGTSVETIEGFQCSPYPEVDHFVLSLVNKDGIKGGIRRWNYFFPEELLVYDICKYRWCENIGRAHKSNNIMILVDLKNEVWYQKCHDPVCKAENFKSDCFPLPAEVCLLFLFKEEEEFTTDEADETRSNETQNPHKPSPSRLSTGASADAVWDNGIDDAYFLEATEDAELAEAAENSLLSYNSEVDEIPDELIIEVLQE
UniProt Q96GV9: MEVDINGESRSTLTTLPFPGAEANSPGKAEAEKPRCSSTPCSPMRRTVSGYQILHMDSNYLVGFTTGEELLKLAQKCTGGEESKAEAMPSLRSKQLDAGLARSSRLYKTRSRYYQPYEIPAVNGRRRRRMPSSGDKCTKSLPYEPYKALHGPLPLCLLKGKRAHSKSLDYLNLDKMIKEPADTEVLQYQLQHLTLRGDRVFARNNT
UniProt Q99497, whole entry: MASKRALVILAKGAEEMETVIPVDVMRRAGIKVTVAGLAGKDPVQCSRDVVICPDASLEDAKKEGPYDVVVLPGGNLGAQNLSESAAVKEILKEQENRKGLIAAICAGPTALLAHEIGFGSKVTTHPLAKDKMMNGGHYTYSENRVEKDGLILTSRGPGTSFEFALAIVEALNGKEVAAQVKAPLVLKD
UniProt Q96IX5: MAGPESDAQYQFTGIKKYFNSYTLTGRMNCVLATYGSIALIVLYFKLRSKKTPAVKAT
UniProt Q96QZ7: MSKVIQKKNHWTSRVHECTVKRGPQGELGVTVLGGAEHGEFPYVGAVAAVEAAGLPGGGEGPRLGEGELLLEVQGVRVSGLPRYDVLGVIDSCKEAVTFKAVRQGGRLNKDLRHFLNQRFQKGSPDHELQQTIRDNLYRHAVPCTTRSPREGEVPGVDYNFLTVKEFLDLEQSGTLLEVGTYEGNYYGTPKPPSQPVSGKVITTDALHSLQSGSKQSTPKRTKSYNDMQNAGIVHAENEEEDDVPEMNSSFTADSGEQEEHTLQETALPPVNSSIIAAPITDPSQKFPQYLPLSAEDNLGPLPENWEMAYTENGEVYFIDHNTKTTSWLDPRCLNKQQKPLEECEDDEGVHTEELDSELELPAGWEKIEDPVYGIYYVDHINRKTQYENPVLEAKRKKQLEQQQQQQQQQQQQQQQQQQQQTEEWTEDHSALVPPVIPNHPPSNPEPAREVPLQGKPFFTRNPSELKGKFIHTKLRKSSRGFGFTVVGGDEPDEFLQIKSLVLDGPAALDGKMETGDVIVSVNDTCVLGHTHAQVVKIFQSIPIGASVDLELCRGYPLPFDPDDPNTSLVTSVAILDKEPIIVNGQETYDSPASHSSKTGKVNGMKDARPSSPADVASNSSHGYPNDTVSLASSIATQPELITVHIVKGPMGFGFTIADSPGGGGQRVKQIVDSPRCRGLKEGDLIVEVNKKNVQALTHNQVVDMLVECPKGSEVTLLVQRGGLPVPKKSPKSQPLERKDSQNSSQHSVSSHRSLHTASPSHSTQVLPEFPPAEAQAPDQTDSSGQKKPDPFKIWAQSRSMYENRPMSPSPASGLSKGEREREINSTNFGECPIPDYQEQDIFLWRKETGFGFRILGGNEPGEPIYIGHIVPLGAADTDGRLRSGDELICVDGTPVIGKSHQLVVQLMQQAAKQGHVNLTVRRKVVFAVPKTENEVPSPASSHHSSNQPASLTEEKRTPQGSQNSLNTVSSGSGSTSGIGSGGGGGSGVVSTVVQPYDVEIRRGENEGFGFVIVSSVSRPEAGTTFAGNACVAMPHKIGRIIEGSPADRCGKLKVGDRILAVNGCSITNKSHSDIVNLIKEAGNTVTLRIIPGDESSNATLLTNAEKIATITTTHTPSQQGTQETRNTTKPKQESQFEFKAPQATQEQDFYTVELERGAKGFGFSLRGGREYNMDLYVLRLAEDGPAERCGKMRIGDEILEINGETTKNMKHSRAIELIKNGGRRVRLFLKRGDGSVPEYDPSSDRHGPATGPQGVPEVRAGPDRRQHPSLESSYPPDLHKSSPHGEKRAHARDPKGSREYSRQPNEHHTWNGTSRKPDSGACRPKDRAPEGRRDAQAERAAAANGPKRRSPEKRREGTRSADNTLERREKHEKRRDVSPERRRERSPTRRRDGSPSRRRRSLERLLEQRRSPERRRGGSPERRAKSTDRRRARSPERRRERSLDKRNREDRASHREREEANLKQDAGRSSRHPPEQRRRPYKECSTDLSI
UniProt Q96FW1, whole entry: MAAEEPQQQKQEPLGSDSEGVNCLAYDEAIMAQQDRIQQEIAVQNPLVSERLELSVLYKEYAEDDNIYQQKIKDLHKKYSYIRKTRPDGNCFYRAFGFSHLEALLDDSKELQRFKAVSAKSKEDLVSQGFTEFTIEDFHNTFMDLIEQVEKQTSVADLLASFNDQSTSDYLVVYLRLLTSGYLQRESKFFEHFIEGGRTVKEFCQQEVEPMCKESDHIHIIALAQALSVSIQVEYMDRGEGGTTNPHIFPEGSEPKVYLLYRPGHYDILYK
UniProt Q96T51: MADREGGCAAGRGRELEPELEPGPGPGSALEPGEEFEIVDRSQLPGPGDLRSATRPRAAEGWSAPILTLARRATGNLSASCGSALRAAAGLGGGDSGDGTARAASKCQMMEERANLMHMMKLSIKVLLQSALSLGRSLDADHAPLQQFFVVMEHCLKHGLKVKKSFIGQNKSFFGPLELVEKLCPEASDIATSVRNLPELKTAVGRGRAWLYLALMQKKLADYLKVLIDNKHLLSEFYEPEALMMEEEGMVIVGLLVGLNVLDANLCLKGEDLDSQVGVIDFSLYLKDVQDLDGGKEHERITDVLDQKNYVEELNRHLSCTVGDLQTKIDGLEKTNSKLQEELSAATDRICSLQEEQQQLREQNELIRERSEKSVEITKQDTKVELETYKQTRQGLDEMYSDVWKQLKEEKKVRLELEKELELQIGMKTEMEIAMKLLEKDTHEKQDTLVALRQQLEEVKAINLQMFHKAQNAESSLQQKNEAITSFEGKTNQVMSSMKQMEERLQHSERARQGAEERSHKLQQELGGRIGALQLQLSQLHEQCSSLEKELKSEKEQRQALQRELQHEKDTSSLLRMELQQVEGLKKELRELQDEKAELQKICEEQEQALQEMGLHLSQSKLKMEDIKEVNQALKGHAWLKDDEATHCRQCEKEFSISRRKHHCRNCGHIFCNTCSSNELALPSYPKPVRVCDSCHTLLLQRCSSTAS
UniProt Q96PE7: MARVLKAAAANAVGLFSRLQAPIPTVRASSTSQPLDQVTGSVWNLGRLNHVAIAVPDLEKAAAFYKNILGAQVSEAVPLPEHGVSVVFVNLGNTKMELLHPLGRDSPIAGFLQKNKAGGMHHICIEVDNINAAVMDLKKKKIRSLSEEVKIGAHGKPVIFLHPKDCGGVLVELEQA
UniProt Q96JH7: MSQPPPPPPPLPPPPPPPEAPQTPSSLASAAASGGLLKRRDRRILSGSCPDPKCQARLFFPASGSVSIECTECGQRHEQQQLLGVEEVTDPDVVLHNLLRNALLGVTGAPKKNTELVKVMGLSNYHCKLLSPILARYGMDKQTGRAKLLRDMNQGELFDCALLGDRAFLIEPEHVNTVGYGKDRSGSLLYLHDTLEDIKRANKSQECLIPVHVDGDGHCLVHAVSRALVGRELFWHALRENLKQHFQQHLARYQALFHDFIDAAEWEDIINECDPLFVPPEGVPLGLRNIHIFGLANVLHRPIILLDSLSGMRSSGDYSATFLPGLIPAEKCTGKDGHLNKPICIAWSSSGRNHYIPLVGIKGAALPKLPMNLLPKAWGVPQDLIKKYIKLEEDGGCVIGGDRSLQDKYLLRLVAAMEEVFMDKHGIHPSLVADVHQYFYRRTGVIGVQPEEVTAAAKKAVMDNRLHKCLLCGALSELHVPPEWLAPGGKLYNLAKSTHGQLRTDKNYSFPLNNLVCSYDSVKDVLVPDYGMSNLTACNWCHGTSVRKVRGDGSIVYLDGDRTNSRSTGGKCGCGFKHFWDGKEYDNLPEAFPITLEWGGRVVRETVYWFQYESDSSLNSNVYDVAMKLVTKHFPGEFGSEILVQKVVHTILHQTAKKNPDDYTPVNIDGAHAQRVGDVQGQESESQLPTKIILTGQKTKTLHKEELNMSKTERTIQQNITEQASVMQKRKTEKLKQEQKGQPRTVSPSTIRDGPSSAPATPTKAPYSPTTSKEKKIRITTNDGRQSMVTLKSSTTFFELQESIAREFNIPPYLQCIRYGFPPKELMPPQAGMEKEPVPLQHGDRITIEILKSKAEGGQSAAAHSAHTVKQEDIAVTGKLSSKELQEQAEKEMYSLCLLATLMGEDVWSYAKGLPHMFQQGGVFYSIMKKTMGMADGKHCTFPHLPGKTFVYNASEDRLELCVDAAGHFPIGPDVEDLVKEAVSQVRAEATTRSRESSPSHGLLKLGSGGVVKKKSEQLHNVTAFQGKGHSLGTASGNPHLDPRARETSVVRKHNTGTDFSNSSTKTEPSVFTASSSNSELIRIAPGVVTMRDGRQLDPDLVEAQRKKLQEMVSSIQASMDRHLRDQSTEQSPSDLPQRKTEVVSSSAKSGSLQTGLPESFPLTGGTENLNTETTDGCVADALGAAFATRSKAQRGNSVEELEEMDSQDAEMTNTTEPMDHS
UniProt Q96MW1: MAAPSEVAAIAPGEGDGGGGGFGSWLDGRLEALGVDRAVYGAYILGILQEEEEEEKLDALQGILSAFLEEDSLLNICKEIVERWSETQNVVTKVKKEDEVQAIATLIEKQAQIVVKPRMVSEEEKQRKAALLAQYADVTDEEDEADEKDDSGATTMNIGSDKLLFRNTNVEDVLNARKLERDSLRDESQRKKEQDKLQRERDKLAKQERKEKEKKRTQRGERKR
UniProt Q96HS1, whole entry: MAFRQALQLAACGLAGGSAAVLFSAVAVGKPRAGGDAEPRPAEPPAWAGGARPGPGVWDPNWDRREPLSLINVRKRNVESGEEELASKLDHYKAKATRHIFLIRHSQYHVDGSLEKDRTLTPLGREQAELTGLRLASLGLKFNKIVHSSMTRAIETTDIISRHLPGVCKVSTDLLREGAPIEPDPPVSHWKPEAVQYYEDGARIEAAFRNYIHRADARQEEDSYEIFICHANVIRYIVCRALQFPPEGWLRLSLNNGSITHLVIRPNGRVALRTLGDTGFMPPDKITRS
UniProt Q96QD9: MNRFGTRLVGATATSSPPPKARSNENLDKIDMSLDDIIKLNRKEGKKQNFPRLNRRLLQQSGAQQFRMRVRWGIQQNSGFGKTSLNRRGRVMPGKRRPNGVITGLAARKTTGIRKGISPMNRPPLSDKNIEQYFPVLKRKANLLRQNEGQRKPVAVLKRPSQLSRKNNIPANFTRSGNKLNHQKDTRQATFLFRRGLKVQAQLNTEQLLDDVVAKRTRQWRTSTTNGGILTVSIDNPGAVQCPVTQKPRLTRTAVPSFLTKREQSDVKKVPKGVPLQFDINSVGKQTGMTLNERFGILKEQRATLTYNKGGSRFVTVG

Compound: CCc1cnccc1C(=O)Nc1cc2c(cc1F)NC(=O)CC2
Experiment: melting temperature shift (DMSO Tm minus MBE1-treated Tm) in cellular thermal proteome profiling; higher = less thermal stabilization by MBE1 (negative = stabilized by MBE1)
Settings: A375

| Target | melting temperature shift (MBE1 concentration: 100 nM) [°C] | melting temperature shift (MBE1 concentration: 1 uM) [°C] |
| --- | --- | --- |
| PBK (UniProt Q96KB5) | -0.527 | -0.0706 |
| RSRC1 (UniProt Q96IZ7) | – | 0.569 |
| NGLY1 (UniProt Q96IV0) | 0 | 0.231 |
| MVB12A (UniProt Q96EY5) | -0.979 | -0.47 |
| UniProt Q96G61 | – | -0.879 |
| UniProt Q96N06 | -2.41 | -4.13 |
| UHRF1 (UniProt Q96T88) | -0.192 | -0.474 |
| COG3 (UniProt Q96JB2) | -0.278 | -0.296 |
| MMS19 (UniProt Q96T76) | -0.141 | 0.122 |
| CFAP36 (UniProt Q96G28) | -1.31 | -1.55 |
| SRPK1 (UniProt Q96SB4) | 0.44 | 0.867 |
| UniProt Q96L91 | -4.81 | -5.03 |
| ZNF668 (UniProt Q96K58) | – | -0.116 |
| UniProt Q96FF9 | -0.0335 | 1.18 |
| UniProt Q96EP1 | – | -1.14 |
| TMEM209 (UniProt Q96SK2) | 0.782 | 1.2 |
| CERS2 (UniProt Q96G23) | 0.122 | 0.605 |
| PDXP (UniProt Q96GD0) | – | -2.31 |
| SIN3A (UniProt Q96ST3) | -0.666 | -0.141 |
| TOE1 (UniProt Q96GM8) | -2.13 | -0.121 |
| AHCYL2 (UniProt Q96HN2) | -0.715 | -0.268 |
| SIPA1 (UniProt Q96FS4) | 1.14 | 0.293 |
| MCCC1 (UniProt Q96RQ3) | 0.372 | 0.55 |
| FBXL20 (UniProt Q96IG2) | 0.116 | – |

| Target | melting temperature shift (MBE1 concentration: 100 nM) [°C] | melting temperature shift (MBE1 concentration: 1 uM) [°C] |
| --- | --- | --- |
| SNX27 (UniProt Q96L92) | -0.819 | -0.0988 |
| UniProt Q96ES6 | -1.81 | -1.13 |
| EHMT2 (UniProt Q96KQ7) | -0.583 | -0.198 |
| REEP6 (UniProt Q96HR9) | – | 4.56 |
| SCYL1 (UniProt Q96KG9) | 0.916 | 0.226 |
| UniProt Q96LW4 | -0.115 | -0.365 |
| MRPS24 (UniProt Q96EL2) | -0.281 | -0.501 |
| UniProt Q99504 | -0.275 | -0.73 |
| NARS2 (UniProt Q96I59) | -0.837 | -0.461 |
| CARD19 (UniProt Q96LW7) | -0.704 | -0.168 |
| UniProt Q96KN1 | 1.47 | 0.574 |
| UniProt Q96GV9 | – | -4.41 |
| DAZAP1 (UniProt Q96EP5) | -0.496 | 0.789 |
| PARK7 (UniProt Q99497) | -1.48 | -0.837 |
| UniProt Q96KM6 | -0.296 | 0.679 |
| NEU1 (UniProt Q99519) | -0.721 | -1.53 |
| UniProt Q96JQ2 | -0.336 | 0.305 |
| WRNIP1 (UniProt Q96S55) | -0.359 | -0.416 |
| TRNT1 (UniProt Q96Q11) | 0.446 | -0.354 |
| DNAJC1 (UniProt Q96KC8) | 0.464 | 0.659 |
| CLPTM1L (UniProt Q96KA5) | -0.0427 | 0.507 |
| SMC6 (UniProt Q96SB8) | 0.757 | 0.318 |
| USMG5 (UniProt Q96IX5) | -1.44 | -3.39 |
| UniProt Q96QZ7 | 0.849 | -0.0611 |

Complete entries as entered above.
DAZAP1 (UniProt Q96EP5) in the list: melting temperature shift (MBE1 concentration: 100 nM) [°C]: -0.496; melting temperature shift (MBE1 concentration: 1 uM) [°C]: 0.789
USMG5 (UniProt Q96IX5) in the list: melting temperature shift (MBE1 concentration: 100 nM) [°C]: -1.44; melting temperature shift (MBE1 concentration: 1 uM) [°C]: -3.39
UniProt Q96GV9 in the list: melting temperature shift (MBE1 concentration: 1 uM) [°C]: -4.41
UniProt Q96ES6 in the list: melting temperature shift (MBE1 concentration: 100 nM) [°C]: -1.81; melting temperature shift (MBE1 concentration: 1 uM) [°C]: -1.13

Next entries.

| Target | melting temperature shift (MBE1 concentration: 100 nM) [°C] | melting temperature shift (MBE1 concentration: 1 uM) [°C] |
| --- | --- | --- |
| UniProt Q96K19 | 0.0488 | 0.745 |
| UniProt Q96Q89 | -7.86 | -0.0128 |
| BICD1 (UniProt Q96G01) | -0.286 | -0.259 |
| TGS1 (UniProt Q96RS0) | -0.573 | -0.167 |
| CDK5RAP2 (UniProt Q96SN8) | -0.0518 | -0.72 |
| TBCB (UniProt Q99426) | 0.0366 | -0.452 |
| O15320 (UniProt Q96PC5) | -0.195 | -0.44 |
| ERGIC2 (UniProt Q96RQ1) | -1.37 | 0.228 |
| METTL2A (UniProt Q96IZ6) | -0.649 | 0.0141 |
| PGM2 (UniProt Q96G03) | -1.18 | -0.932 |
| OSBPL9 (UniProt Q96SU4) | -0.748 | -0.499 |
| OTUB1 (UniProt Q96FW1) | -0.648 | 0.0855 |
| KCTD15 (UniProt Q96SI1) | -1.09 | 1.12 |
| RUFY1 (UniProt Q96T51) | -0.616 | -0.979 |
| UniProt Q96HE9 | 1.04 | 0.574 |
| VAT1 (UniProt Q99536) | -1.15 | -0.91 |
| CHAMP1 (UniProt Q96JM3) | -0.447 | -0.0518 |
| UniProt Q96PE7 | -3.95 | -2.69 |
| VCPIP1 (UniProt Q96JH7) | -0.583 | -0.34 |
| UniProt Q96MY1 | -4.33 | -3.63 |
| WBSCR16 (UniProt Q96I51) | -0.756 | 0.641 |
| STAMBPL1 (UniProt Q96FJ0) | -0.0183 | -0.269 |
| CCDC43 (UniProt Q96MW1) | -0.238 | 1.29 |
| SUCLG2 (UniProt Q96I99) | -0.214 | 0.128 |

| Target | melting temperature shift (MBE1 concentration: 100 nM) [°C] | melting temperature shift (MBE1 concentration: 1 uM) [°C] |
| --- | --- | --- |
| UniProt Q96HQ2 | -2.96 | -2.96 |
| ITCH (UniProt Q96J02) | 0.188 | 0.0188 |
| UniProt Q96T21 | -1.03 | -0.497 |
| LRCH3 (UniProt Q96II8) | -0.743 | -0.499 |
| UniProt Q96T23 | -1.86 | -0.679 |
| PAWR (UniProt Q96IZ0) | -2.38 | -2.38 |
| ZC3HAV1L (UniProt Q96H79) | 1.28 | -0.128 |
| UniProt Q99418 | -2.01 | -0.211 |
| SNF8 (UniProt Q96H20) | -0.919 | 0.0672 |
| IPO9 (UniProt Q96P70) | -0.822 | 0.134 |
| SEC62 (UniProt Q99442) | -2.31 | -2.05 |
| TRIM11 (UniProt Q96F44) | -0.555 | -0.739 |
| UniProt Q96K80 | 0.336 | -0.745 |
| SCLY (UniProt Q96I15) | -1.37 | 0.716 |
| FAHD2A (UniProt Q96GK7) | -2.19 | -1.36 |
| FBXL18 (UniProt Q96ME1) | -0.154 | -0.21 |
| VPS50 (UniProt Q96JG6) | 0.0183 | -0.44 |
| PGAM5 (UniProt Q96HS1) | -0.744 | 0.315 |
| OXNAD1 (UniProt Q96HP4) | 1.92 | 2.75 |
| MED15 (UniProt Q96RN5) | -0.391 | 0.916 |
| UniProt Q96L73 | 0.0256 | -1.35 |
| HMCES (UniProt Q96FZ2) | -1.23 | -0.762 |
| UniProt Q96QD9 | -0.122 | 0.605 |
| UniProt Q96SB3 | -1.03 | -0.847 |

| Target | melting temperature shift (MBE1 concentration: 100 nM) [°C] | melting temperature shift (MBE1 concentration: 1 uM) [°C] |
| --- | --- | --- |
| UniProt Q96QE3 | -0.0192 | -0.711 |
| UniProt Q96EW2 | -0.0671 | 0.604 |
| CRBN (UniProt Q96SW2) | -0.744 | 1.15 |
| FGD4 (UniProt Q96M96) | -0.729 | -1.43 |
| UniProt Q96NB2 | -0.738 | -0.101 |
| UniProt Q96ME7 | -0.529 | -0.527 |
| MARS2 (UniProt Q96GW9) | -1.48 | 0.861 |
| PURB (UniProt Q96QR8) | -0.805 | 0.519 |
| NRBF2 (UniProt Q96F24) | 1.1 | 0.409 |
| RNF31 (UniProt Q96EP0) | -1.11 | -1.75 |
| TRAPPC9 (UniProt Q96Q05) | 0.153 | 0.0977 |
| DOCK6 (UniProt Q96HP0) | -1.25 | -0.102 |
| BTF3L4 (UniProt Q96K17) | -0.967 | -1.59 |
| SCRN2 (UniProt Q96FV2) | 0.452 | -0.171 |
| PANX1 (UniProt Q96RD7) | -2.84 | -4.59 |
| PAFAH2 (UniProt Q99487) | -0.829 | -0.165 |
| TMA16 (UniProt Q96EY4) | -0.981 | 1.29 |
| TRMT61A (UniProt Q96FX7) | -0.0177 | -0.421 |
| UniProt Q96S15 | -0.55 | 0.416 |
| QKI (UniProt Q96PU8) | -1.67 | -0.541 |
| IWS1 (UniProt Q96ST2) | -0.866 | -0.493 |
| TXNDC15 (UniProt Q96J42) | -1.29 | 0.556 |
| UniProt Q96RK4 | 0.0244 | -2.04 |
| SMARCD1 (UniProt Q96GM5) | -0.359 | -0.109 |
